Assay results as given in article PMC12454907.
Results are given in words; binding and its absence hold for the method and conditions named. In cells and extracts the contact can be indirect. A yes stands for co-enrichment or nearness to the bait. Other partners may have been found. Tags and fused reporters may be left off the sequences shown.

Biological target: T1, OsSAP5-MYC (rice (Oryza sativa)) (UniProt Q6H754)
T1 sequence: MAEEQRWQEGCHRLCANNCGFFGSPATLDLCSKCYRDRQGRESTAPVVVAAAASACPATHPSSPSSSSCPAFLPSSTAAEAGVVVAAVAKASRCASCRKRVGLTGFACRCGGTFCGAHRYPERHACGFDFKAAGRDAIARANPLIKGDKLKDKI
Test: affinity purification with mass spectrometry; total protein of OsSAP5-MYC and NIP seedlings in Co-IP buffer, anti-c-Myc affinity beads 4 h at 4°C, eluate analysed by LC-MS/MS

B1: OsGF14c (LOC_Os08g33370), endogenous (protein, UniProt Q6ZKC0 1-256)
chain: MSREENVYMAKLAEQAERYEEMVEYMEKVAKTVDVEELTVEERNLLSVAYKNVIGARRASWRIVSSIEQKEEGRGNEEHVTLIKEYRGKIEAELSKICDGILKLLDSHLVPSSTAAESKVFYLKMKGDYHRYLAEFKTGAERKEAAESTMVAYKAAQDIALADLAPTHPIRLGLALNFSVFYYEILNSPDKACNLAKQAFDEAISELDTLGEESYKDSTLIMQLLRDNLTLWTSDLTEDGGDEVKEASKGDACEGQ
  binding: binds
